Laboratory results: PubChem BioAssay AID1508588 (Peter MacCallum Cancer Centre, 2020)

Assay: 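Genome-wide search for knock-downs that heighten vemurafenib action in melanoma cells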 (primary screen)
System: human WM266.4 melanoma cells (BRAF V600 mutant)
Reagents: siRNA pool against human genes, 40 nM
Time to read-out: 96 h from transfection to read-out
Challenge: vemurafenib 300 nM (about IC25), added 48 h after transfection, for 48 h; comparison arm got DMSO vehicle only
Read-out: 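Cell gain (DAPI nuclei at end minus before drug, mean of two replicates) and medium lactate by absorbance per cell, both as ratio to non-targeting siRNA, also grouped into fold-change classes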
Reading the numbers: cell gain with vemurafenib: higher = more cell gain than with non-targeting siRNA; lactate per cell with vemurafenib: higher = more lactate made per cell
Rule for the call: 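a knock-down counts as enhancing when its fold-change classes with vehicle and with vemurafenib, taken together, show a stronger drug effect on cell gain or lactate per cell; exact class pairs not stated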
Calls: active = enhances vemurafenib effect; inactive = no enhancement seen
This is an unselected part of about 18,000 reagents. 790 of all reagents (4.4%) were called active. 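Calls rest on a combination of fold-change classes in drug and vehicle arms, not all shown here.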 Reagent sequences are not shown.

Target gene | PubChem SID | cell gain with vemurafenib | lactate per cell with vemurafenib | Outcome
ZNF133 | SID152149045 | 0.69 | 0.9 | inactive
IGSF6 | SID152155127 | 0.6 | 0.9 | inactive
OR2C3 | SID135624202 | 0.1 | 0.97 | inactive
SPATA6 | SID134324119 | 0.48 | 0.8 | inactive
POLR2J | SID152155691 | 0.42 | 1.37 | inactive
MLF2 | SID152152213 | 0.3 | 0.99 | inactive
CBFB | SID134315929 | 0.93 | 0.93 | inactive
ID4 | SID134313755 | 0.49 | 0.84 | inactive
C6orf163 | SID135624483 | 0.42 | -0.03 | active
OTUD5 | SID134318027 | 0.57 | 0.73 | inactive
ACSS1 | SID134313416 | 0.27 | 0.98 | inactive
GSK3A | SID56478467 | 0.61 | 0.68 | inactive
HBG1 | SID134315474 | 0.19 | 1.21 | inactive
DIPK1B | SID135623119 | 0.08 | 1.64 | inactive
SMYD3 | SID134317946 | 0.43 | 0.6 | inactive
BTN2A3P | SID135624186 | 0.74 | 0.81 | inactive
DKK3 | SID152152827 | 0.22 | 0.7 | inactive
TM6SF2 | SID152151821 | 0.78 | 0.86 | inactive
DIAPH3 | SID152148156 | 0.46 | 0.36 | inactive
FANCG | SID134316214 | 1.04 | 0.94 | inactive
SCN5A | SID135621202 | 0.71 | 1.3 | inactive
KLF15 | SID134312100 | 0.85 | 1.07 | inactive
USP17L9P | SID135624767 | 0.59 | 1.88 | inactive
MAGOHB | SID134320686 | 0.69 | 0.9 | inactive
DRC12 | SID135624846 | 0.87 | 1.23 | inactive
PRDM5 | SID134324051 | 0.95 | 0.92 | inactive
SLC23A3 | SID135621375 | 1.09 | 0.66 | inactive
GNA12 | SID134313308 | 0.31 | 0.76 | inactive
TCP11L2 | SID134319959 | 0.21 | 1.2 | inactive
OVOL1 | SID134311865 | 0.53 | 1.25 | inactive
TGFBI | SID134323167 | 0.31 | 0.32 | inactive
WDR83OS | SID152154947 | 0.15 | 1.38 | inactive
ARMCX3 | SID134317555 | 0.5 | 1.07 | inactive
CENPK | SID135622909 | 0.22 | 1.6 | inactive
MRPS21 | SID134317615 | 0.26 | 1.08 | inactive
KLK4 | SID152147018 | 0.22 | 1.68 | inactive
EDEM2 | SID134323963 | 0.53 | 0.98 | inactive
ASB17 | SID134319331 | 0.84 | 1 | inactive
MAP3K12 | SID56478643 | 0.41 | 1.44 | inactive
FH | SID134314245 | 1.15 | 0.45 | inactive
INPP5F | SID135623984 | 0.62 | 0.86 | inactive
GPR84 | SID134311044 | 0.1 | 0.52 | inactive
ID3 | SID152152979 | 0.83 | 0.82 | inactive
ZNF774 | SID152155613 | 1.19 | 0.61 | inactive
EIF4A3 | SID134324407 | -0.12 | 0.34 | active
COLGALT1 | SID134322033 | 0.51 | 1.08 | inactive
NAIP | SID152150229 | 0.37 | 0.73 | inactive
RRP1 | SID152147994 | 0.75 | 0.7 | active
LIPN | SID135625465 | 0.39 | 1.7 | inactive
COL4A2 | SID152156415 | 0.75 | 0.94 | inactive
ISG15 | SID152149955 | 0.21 | 0.82 | inactive
FIGLA | SID152154674 | 0.61 | 0.85 | inactive
PTCHD3 | SID152155343 | 0.69 | 0.58 | inactive
NDUFB1 | SID152147373 | 0.67 | 0.66 | inactive
OR52J3 | SID152151407 | 0.28 | 1.15 | inactive
DMPK | SID135620855 | 0.17 | 1.34 | inactive
LCMT1 | SID135621771 | 0.65 | 0.74 | inactive
TMEFF1 | SID135623440 | 0.59 | 0.87 | inactive
USE1 | SID152153296 | 0.8 | 0.58 | inactive
EPM2A | SID152147762 | 0.73 | 0.61 | inactive
RAX | SID152156644 | 0.68 | 0.81 | inactive
NDUFS6 | SID152153660 | 0 | 1.39 | inactive
PPP1R9A | SID152148633 | 0.79 | 0.87 | inactive
UQCC3 | SID135625705 | 0.89 | 0.84 | inactive
ITGA1 | SID134313383 | 0.64 | 1.19 | inactive
SELENOW | SID134323364 | 0.22 | 1.27 | inactive
SKIL | SID134315035 | 0.61 | 1.15 | inactive
RAB36 | SID134314285 | 0.31 | 1.34 | inactive
TMEM105 | SID134322171 | 0.9 | 0.69 | inactive
GCHFR | SID134316336 | 0.36 | 1.53 | inactive
KIFC1 | SID152148468 | 0.21 | 1.05 | inactive
PCDHA2 | SID135622489 | 0.48 | 0.32 | inactive
COIL | SID152153160 | 1.11 | 0.84 | inactive
TMEM254 | SID134322775 | 0.34 | 1.62 | inactive
GNL1 | SID135622246 | 1.24 | 0.84 | inactive
H4C13 | SID152156435 | 0.8 | 0.56 | inactive
DCTN6 | SID135622295 | 0.33 | 0.55 | inactive
ZNF200 | SID135624214 | 0.91 | 1.08 | inactive
KCNQ5 | SID134311693 | 0.59 | 1.31 | inactive
CCT8L2 | SID135623367 | 1.18 | 0.5 | inactive
ARHGEF5 | SID135620933 | 0.42 | 1.27 | inactive
ATXN7L1 | SID152149367 | 0.82 | 0.87 | inactive
GNG11 | SID152152392 | 0.87 | 0.78 | inactive
ATP5MC1 | SID152154869 | 0.47 | 0.88 | inactive

8 entries from above, reduced to “lactate per cell with vemurafenib”:
GNA12 [SID134313308]	0.76
TCP11L2 [SID134319959]	1.2
OVOL1 [SID134311865]	1.25
TGFBI [SID134323167]	0.32
WDR83OS [SID152154947]	1.38
ARMCX3 [SID134317555]	1.07
CENPK [SID135622909]	1.6
MRPS21 [SID134317615]	1.08
